According to publication PMC4695189:
No constants are given. Whether binding was seen depends on the method and setting. In cells and extracts the contact can be indirect. Some entries that bind do so weakly or less than the wild type.

By UniProt entry, the sequences of proteins in these tests, tags left out.
UniProt Q8NFU7: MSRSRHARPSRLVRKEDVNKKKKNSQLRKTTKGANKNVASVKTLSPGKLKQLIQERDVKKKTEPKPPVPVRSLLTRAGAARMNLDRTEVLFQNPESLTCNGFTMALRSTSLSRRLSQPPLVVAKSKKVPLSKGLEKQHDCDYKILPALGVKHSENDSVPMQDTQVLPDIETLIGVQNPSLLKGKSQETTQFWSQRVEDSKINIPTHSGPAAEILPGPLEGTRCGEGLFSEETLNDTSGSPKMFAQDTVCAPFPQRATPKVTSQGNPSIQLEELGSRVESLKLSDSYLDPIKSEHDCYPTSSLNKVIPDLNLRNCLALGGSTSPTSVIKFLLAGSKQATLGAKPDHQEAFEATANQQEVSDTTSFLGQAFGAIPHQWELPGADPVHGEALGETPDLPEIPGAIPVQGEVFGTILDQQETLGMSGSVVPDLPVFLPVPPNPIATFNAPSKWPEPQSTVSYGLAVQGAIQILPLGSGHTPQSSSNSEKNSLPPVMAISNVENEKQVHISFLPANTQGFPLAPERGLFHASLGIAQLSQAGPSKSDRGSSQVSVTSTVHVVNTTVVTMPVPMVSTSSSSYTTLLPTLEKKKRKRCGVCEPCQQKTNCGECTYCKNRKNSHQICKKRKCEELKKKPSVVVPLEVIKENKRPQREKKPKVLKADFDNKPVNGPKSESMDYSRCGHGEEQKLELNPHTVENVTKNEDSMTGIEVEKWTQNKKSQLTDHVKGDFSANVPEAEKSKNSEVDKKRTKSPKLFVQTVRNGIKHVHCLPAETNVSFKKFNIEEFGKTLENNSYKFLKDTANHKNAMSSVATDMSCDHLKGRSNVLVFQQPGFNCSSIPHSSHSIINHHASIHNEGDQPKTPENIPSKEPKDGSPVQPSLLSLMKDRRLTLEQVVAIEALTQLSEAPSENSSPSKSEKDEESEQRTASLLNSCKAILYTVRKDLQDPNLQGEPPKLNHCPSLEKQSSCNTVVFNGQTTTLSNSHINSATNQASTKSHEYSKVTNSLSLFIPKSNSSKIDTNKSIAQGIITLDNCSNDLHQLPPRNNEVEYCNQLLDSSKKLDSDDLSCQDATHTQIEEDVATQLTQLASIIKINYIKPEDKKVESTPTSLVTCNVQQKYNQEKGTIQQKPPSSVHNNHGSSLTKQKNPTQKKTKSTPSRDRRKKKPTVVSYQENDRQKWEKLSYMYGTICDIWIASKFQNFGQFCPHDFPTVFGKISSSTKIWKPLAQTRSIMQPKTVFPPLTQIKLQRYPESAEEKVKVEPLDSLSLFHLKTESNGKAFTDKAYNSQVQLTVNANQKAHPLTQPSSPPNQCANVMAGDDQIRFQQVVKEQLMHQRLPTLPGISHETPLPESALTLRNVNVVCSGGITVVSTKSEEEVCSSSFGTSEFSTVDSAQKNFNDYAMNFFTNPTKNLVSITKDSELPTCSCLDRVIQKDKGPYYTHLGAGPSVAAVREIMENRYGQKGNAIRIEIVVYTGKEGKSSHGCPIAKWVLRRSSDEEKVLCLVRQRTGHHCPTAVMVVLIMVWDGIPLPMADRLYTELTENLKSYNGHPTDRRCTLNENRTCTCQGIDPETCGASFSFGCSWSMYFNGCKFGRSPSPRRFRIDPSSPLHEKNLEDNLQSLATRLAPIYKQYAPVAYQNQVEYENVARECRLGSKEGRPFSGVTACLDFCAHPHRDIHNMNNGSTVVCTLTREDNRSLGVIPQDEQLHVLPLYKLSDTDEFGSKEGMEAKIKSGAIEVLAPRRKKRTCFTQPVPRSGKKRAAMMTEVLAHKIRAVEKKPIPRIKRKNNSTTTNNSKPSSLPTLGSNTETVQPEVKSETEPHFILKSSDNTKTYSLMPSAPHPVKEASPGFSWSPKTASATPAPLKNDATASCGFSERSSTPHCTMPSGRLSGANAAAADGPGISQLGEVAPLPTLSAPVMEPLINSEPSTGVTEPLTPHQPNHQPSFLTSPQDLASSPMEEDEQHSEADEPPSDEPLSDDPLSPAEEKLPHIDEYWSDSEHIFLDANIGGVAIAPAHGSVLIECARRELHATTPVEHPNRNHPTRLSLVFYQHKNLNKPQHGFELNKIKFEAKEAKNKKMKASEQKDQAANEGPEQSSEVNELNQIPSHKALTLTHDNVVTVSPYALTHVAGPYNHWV
UniProt P09874: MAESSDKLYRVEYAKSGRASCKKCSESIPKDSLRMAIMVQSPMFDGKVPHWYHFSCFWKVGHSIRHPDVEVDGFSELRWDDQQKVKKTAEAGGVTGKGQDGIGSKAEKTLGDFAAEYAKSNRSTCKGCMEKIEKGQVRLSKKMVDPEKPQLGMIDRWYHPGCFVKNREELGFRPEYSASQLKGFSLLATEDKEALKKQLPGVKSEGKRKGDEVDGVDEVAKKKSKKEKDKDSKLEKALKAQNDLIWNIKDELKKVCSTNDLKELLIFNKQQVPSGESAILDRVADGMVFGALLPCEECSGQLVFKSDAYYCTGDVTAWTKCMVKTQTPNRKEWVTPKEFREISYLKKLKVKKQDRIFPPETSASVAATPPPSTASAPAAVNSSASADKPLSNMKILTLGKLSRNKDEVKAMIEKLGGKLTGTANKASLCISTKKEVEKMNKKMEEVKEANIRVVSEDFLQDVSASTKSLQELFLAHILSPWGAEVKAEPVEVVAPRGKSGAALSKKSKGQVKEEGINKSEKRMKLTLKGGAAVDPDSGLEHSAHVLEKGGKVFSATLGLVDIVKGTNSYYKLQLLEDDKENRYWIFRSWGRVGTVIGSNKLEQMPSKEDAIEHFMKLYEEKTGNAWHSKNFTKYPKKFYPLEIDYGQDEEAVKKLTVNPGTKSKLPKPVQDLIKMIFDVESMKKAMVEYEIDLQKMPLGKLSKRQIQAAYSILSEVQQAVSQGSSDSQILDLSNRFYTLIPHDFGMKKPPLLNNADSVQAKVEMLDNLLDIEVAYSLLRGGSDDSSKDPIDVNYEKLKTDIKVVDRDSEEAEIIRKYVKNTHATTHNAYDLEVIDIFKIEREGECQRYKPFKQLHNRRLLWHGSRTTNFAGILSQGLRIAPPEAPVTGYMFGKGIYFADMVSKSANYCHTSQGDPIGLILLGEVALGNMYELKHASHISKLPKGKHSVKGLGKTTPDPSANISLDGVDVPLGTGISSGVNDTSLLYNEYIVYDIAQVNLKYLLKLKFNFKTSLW

Molecular target: TET1 protein (Ten-eleven-translocation 1) (human (endogenous in HEK293T)) (UniProt Q8NFU7)
Experiment: co-IP; anti TET1 or anti PARP-1 antibodies on nuclear lysates of HEK293T treated or not with ABT-888 for 6 hrs; 150 mM NaCl, 0.5% NP-40, 1% glycerol, 4°C; Western blot

“PARP-1/ARTD1 (poly(ADP-ribose) polymerase 1; ADP-ribosyltransferase diphtheria toxin-like 1) (from UniProt P09874 1-1014) (enzyme)” was tested, and the binding was “binds”.
